This experiment has as its target T1, testis-expressed gene 14 (TEX14), full-length mouse, yeast two-hybrid fusion (mouse) (UniProt Q7M6U3).
T1 sequence: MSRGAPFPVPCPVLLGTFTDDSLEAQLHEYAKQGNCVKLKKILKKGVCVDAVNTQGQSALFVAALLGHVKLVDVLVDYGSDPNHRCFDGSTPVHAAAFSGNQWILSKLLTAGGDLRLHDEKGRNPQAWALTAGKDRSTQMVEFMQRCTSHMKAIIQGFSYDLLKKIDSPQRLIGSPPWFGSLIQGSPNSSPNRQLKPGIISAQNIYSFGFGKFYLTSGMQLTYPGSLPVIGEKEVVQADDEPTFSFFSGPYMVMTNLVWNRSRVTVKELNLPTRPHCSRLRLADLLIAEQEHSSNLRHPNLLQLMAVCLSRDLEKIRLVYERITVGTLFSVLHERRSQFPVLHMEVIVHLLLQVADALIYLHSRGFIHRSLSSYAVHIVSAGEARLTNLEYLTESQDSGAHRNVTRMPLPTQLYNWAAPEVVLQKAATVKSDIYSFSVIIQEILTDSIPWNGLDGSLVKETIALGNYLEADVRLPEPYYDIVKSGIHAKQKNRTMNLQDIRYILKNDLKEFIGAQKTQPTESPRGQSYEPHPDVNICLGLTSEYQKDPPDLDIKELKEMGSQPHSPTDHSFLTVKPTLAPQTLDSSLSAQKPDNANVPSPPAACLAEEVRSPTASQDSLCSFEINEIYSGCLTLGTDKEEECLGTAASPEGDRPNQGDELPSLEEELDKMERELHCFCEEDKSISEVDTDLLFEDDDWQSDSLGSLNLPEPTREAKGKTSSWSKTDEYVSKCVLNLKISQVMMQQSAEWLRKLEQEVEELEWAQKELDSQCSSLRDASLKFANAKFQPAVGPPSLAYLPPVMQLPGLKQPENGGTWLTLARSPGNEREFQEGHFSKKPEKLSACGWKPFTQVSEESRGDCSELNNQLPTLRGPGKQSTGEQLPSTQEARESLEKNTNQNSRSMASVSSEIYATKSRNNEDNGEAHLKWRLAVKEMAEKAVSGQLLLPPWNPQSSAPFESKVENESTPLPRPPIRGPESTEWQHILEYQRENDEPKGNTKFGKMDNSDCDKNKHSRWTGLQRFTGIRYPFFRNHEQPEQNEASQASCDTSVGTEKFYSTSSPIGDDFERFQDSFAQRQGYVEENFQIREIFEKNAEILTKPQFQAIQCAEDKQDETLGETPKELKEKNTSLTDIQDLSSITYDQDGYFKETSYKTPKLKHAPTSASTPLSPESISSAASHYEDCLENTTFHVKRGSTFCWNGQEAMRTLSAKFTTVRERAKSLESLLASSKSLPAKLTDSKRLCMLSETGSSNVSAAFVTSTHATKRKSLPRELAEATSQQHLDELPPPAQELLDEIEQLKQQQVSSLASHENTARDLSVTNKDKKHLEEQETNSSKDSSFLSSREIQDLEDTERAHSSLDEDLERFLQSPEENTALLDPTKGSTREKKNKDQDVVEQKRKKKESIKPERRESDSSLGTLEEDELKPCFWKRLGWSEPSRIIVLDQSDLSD
Briefly: two-hybrid; yeast, Matchmaker Two-Hybrid System 3 (Clontech), GAL4 pGBKT7 bait and pGADT7 prey vectors, full-length mouse proteins; some interactions also examined with an oxygen-biosensor assay of yeast growth in selective medium.

These are yes or no findings as the source states them, for the method shown. Some results given as binding are weak or reduced against the parent protein; the word gives no strength. Where a sequence is shown, tags or fusion partners need not be part of it.

B1: centrosomal protein 55 kDa (CEP55), full-length mouse, yeast two-hybrid fusion (protein, UniProt Q8BT07 1-462)
chain: MSSRSPKDLIKSKWGSRPSSSKSDTALEKFKGEIAAFKTSLDEITSGKGKMAEKGRSRLLEKIQVLEAEREKNVYYLLEKDKEIQRLKDHLRSRYSSSSLFEQLEEKTKECEKKQQLLESLSKETDVLKNQLSATTKRLSELESKASTLHLSQSMPANCFNSSMNSIHEKEMQLKDALEKNQQWLVYDQQREAYVKGLLAKIFELEKRTETAAASLTQQMKKIESEGYLQVEKQKYDHLLENAKKDLEVERQAVTQLRLELDEFRRKYEEARKEVEDLNQLLSSQRKADIQHLEEDKQKTERIQKLREESSIFKGKLEEERKRSEELLSQVRILYDSLLKHQEEQARVALLEQQMQACTLDFENEKLDRQNMQHQLYVILKELRKAKSQITQLESLKQLHGFTITEQPFPLQREPESRVKATSPKSPSAALNDSLVECPKCSVQYPATEHRDLLVHVEYCMK
On to B1, for which the binding result is reported as “binds”.

B2: mitotic kinesis-like protein 1 (MKLP1), full-length mouse, yeast two-hybrid fusion (protein, UniProt E9Q5G3 1-953)
chain: MKSAKAKTVRKPVIKKGSQTNLKDPVGVYCRVRPLSFPDQECCVEVINSTTLQLHTPEGYRLNRNGDYKETQYSFKRVFGTHTTQKELFDVVANPLVDDLIHGKNGLLFTYGVTGSGKTYTMTGSPGSGGLLPRCLNMIFNSIGSFQAKRYVFKSNDRNSMEIQCEVDALLERQKREALPIPKTPSSKRQADPEFADMINVQEFCKAEEVDEDSVYGVFVSYIEIYNNYIYDLLEEVQFDPIKPKLPQSKTLREDKNHNMYVAGCTEVEVKSTEEAFEVFWRGQKKRRIANTHLNRESSRSHSVFSIKLVQAPLDADGDNVLQEKEQITISQLSLVDLAGSERTNRTKAEGNRLREAGNINQSLMTLRTCMEVLRENQTYGTNKMVPYRDSKLTHLFKNYFDGEGKVRMIVCVNPKAEDYEESLQVMRFAEVTQEVEVARPVDKVICGLTPGRRYRNLPRGGPVGDEPLVPEVILQSFPPLPPCKLLDINDEETLPKLADTLEKRHHLRQLMTEDLNKKCLAFKALLKEFDNSLSNKENYVQEKLNEREKVISGQKLEIERLEKKNKTLEYKIEILEKTTTIYEEDKRNLQQELESQNQKLQRQFSDKRRLEARLQGMVTETSMKWQKECERRVAATQLEMQNKLWVKDEKLKQLKAIVTEPKPEKPERPSRERDREKIIPRSVSPSPLPLSSNNIAQISNGQQLMSQPQLHRRSNSCSSISVASCISEWEQKLSPFSTPVNVTSLARHRQQEPGQSKTCIVSDRRRGMCWTEGREMVPTFSSEIGVEEDHCRRNTPIPVRHRRSRSAGSRWVDHKPASNVQTETVMQPHVPHAITVSVANEKALAKCEKYMLTHQELASDGEIQTKVIKGDVYKTRGGGQSVQFTDIETLKQELPTGSRKRRSSTLAPAQPDGTESEWTDVETRCSVAVEMRAGSQLGPGYQHHAQPKRKKP
Turning to B2, the binding entry is recorded as “binds”.

B3: testis-expressed gene 14 (TEX14), full-length mouse, yeast two-hybrid fusion (protein, UniProt Q7M6U3 1-1450)
chain: MSRGAPFPVPCPVLLGTFTDDSLEAQLHEYAKQGNCVKLKKILKKGVCVDAVNTQGQSALFVAALLGHVKLVDVLVDYGSDPNHRCFDGSTPVHAAAFSGNQWILSKLLTAGGDLRLHDEKGRNPQAWALTAGKDRSTQMVEFMQRCTSHMKAIIQGFSYDLLKKIDSPQRLIGSPPWFGSLIQGSPNSSPNRQLKPGIISAQNIYSFGFGKFYLTSGMQLTYPGSLPVIGEKEVVQADDEPTFSFFSGPYMVMTNLVWNRSRVTVKELNLPTRPHCSRLRLADLLIAEQEHSSNLRHPNLLQLMAVCLSRDLEKIRLVYERITVGTLFSVLHERRSQFPVLHMEVIVHLLLQVADALIYLHSRGFIHRSLSSYAVHIVSAGEARLTNLEYLTESQDSGAHRNVTRMPLPTQLYNWAAPEVVLQKAATVKSDIYSFSVIIQEILTDSIPWNGLDGSLVKETIALGNYLEADVRLPEPYYDIVKSGIHAKQKNRTMNLQDIRYILKNDLKEFIGAQKTQPTESPRGQSYEPHPDVNICLGLTSEYQKDPPDLDIKELKEMGSQPHSPTDHSFLTVKPTLAPQTLDSSLSAQKPDNANVPSPPAACLAEEVRSPTASQDSLCSFEINEIYSGCLTLGTDKEEECLGTAASPEGDRPNQGDELPSLEEELDKMERELHCFCEEDKSISEVDTDLLFEDDDWQSDSLGSLNLPEPTREAKGKTSSWSKTDEYVSKCVLNLKISQVMMQQSAEWLRKLEQEVEELEWAQKELDSQCSSLRDASLKFANAKFQPAVGPPSLAYLPPVMQLPGLKQPENGGTWLTLARSPGNEREFQEGHFSKKPEKLSACGWKPFTQVSEESRGDCSELNNQLPTLRGPGKQSTGEQLPSTQEARESLEKNTNQNSRSMASVSSEIYATKSRNNEDNGEAHLKWRLAVKEMAEKAVSGQLLLPPWNPQSSAPFESKVENESTPLPRPPIRGPESTEWQHILEYQRENDEPKGNTKFGKMDNSDCDKNKHSRWTGLQRFTGIRYPFFRNHEQPEQNEASQASCDTSVGTEKFYSTSSPIGDDFERFQDSFAQRQGYVEENFQIREIFEKNAEILTKPQFQAIQCAEDKQDETLGETPKELKEKNTSLTDIQDLSSITYDQDGYFKETSYKTPKLKHAPTSASTPLSPESISSAASHYEDCLENTTFHVKRGSTFCWNGQEAMRTLSAKFTTVRERAKSLESLLASSKSLPAKLTDSKRLCMLSETGSSNVSAAFVTSTHATKRKSLPRELAEATSQQHLDELPPPAQELLDEIEQLKQQQVSSLASHENTARDLSVTNKDKKHLEEQETNSSKDSSFLSSREIQDLEDTERAHSSLDEDLERFLQSPEENTALLDPTKGSTREKKNKDQDVVEQKRKKKESIKPERRESDSSLGTLEEDELKPCFWKRLGWSEPSRIIVLDQSDLSD
Regarding B3, the binding entry is given as “binds”.

The values above are taken from paper PMC3045441.
